Experiments:
[1] = heat activated transfer of image dye (yellow coupler Y-1, developer CD-2) through gelatin interlayer to polymeric dye receiver, Status A blue density; conditions: coupler Y-1, CD-2; for Obs. Blue Density, Integral: integral film; for Obs. Blue Density, Receiver 0-pass: receiver without thermal processing; for Obs. Blue Density, Receiver 3-pass: 3 passes
Procedure: Heat Activated Image Transfer. Dried integral films are laminated with gelatin subbed ESTAR™ film base and passed through a set of heated rollers at 0.635 cm./sec. with roller surface temperatures of 110° C. and a pressure of 140 kPa. The two film bases are separated; the gelatin layers adhere to the gelatin subbed ESTAR™ base and are thus separated from the polymeric dye receiver layer and its support. Status A reflection densitometry is obtained on the polymeric dye-receiver layer coated on a reflective support. These density values determined with the appropriate Status A filter are given in Example 1 in Table III.
Thermal Solvent Test Employing a Yellow Dye Forming Coupler. Three film examples are prepared in a manner analogous to examples 1 and 2 above, using a yellow dye forming coupler, Y-1, and a blue sensitized cubic emulsion in place of M-1 and a green sensitized emulsion, respectively. In this example TS-1 is compared with no added hydroxybenzene compound and with a hydroxybenzene without a hydrogen bond accepting functional group (CS-1). The thermal solvent [drawing 8] test layer is coated at gelatin laydown of 1.40 g/m^2 and a thermal solvent test compound at 1.30 g/m^2. The dye generating layer is coated at 1.40 g/m^2 of gelatin, 0.53 g/m^2 of coupler Y-1 and 0.38 g/m^2 of Ag. The photographic development and thermal processing is as described in example 2. In these examples the gelatin layers of the integral developed films are removed from the dye receiver layer prior to thermal processing by strippping with adhesive films. These film samples, free of the dye generating gelatin layers, are referred to as 0-pass receivers and illustrate the dye density transfer that occurs in the treatment steps prior to thermal treatment. The original or integral DlogE scales of both example films are similar.
The films described above in examples 12-14 are exposed and processed in a developer solution in which an equimolar change of the color developer is made from CD-3 to CD-2. All other components in the developer solution are unchanged in identity and concentration except as required to adjust the pH of the developer solution. After image development these films are dried and thermally processed as described in examples 12 through 14. […] Comparative compound CS-1, a hydroxybenzene without a hydrogen bond accepting functional group, transfers less than 4% of the integral dye density to the receiver layer.

[2] = heat activated transfer of image dye (coupler M-1, developer CD-2) through gelatin interlayer to polymeric dye receiver, Status A green density; conditions: for Obs. Green Density, 1-pass Rec / Obs. Green Density, 3-pass Rec: coupler M-1, CD-2, receiver, rollers 110° C.; for Obs. Green Density, 3-pass Rec: 3 passes; for Obs. Green Density, Integral: coupler M-1, CD-2 developer, integral film before transfer
[3] = heat activated transfer of image dye (coupler M-1, developer CD-3) through gelatin interlayer to polymeric dye receiver, Status A green density; conditions: for net image density in the polymeric dye-receiver layer (green): step with integral density 2.11, CD-3; for Obs. Green Density, 1-pass Rec / Obs. Green Density, 3-pass Rec: coupler M-1, CD-3, receiver, rollers 110° C.; for Obs. Green Density, 3-pass Rec: 3 passes; for Obs. Green Density, Integral: coupler M-1, CD-3 developer, integral film before transfer
Procedure: The following 17 examples are prepared to examine the ability of materials to effect the transfer of image dye through intervening layers of gelatin binder into a polymeric dye receiver layer and are described by the coating format shown in FIG. 2. The first layer (FIG. 2, layer 14) contains gelatin binder and the material to be tested as a thermal solvent while the upper layer (FIG. 2, layer 16) contains the image generating chemistry comprising a silver chloride emulsion and a dispersion of a dye generating coupler in a gelatin binder. A third, protective overcoat, layer (FIG. 2, layer 15) containing gelatin and hardener is applied over the first two gelatin test layers.
Examples 1 and 2 describe in detail the preparation of the solutions and dispersions used in these examples. Examples 3 and 4 describe the same film samples processed in a second developer. Example 1 contains no added material in the first gelatin layer. Example 2 is an example of a compound of our invention according to formula I.
Gelatin Interlayer Melt Preparation. This is an interlayer consisting of only gelatin that serves as a control for comparison of the effect of added materials on transfer of heat-transferable dyes through gelatin layers. To 2.4 g of ethyl acetate is added, with stirring, a warm solution consisting of 28.8 g of melted and filtered 12.5% gelatin and 4.3 g of a 10% solution of surfactant-A (Alkanol XC™, DuPont) in 54.5 g of distilled water. This mixture is dispersed by three passes through a Gaulin Dispersion Mill set at a gap of 0.125 mm. To 60 g of this dispersion is added 1.5 g of a 10% solution of surfactant-B (Active Olin 10G™), 63.7 g of distilled water and 4.8 g of melted and filtered 12.5% gelatin to prepare a coating melt. [drawing 6]
Dispersion Melt Preparation. To a warmed mixture of 8.064 g of coupler M-1 and 24.50 g of ethyl acetate is added, with stirring, a warmed solution of 134.4 g of 12.5% gelatin in 236.2 g of distilled water and 16.8 g of a 10% solution of surfactant-A. This mixture is dispersed by three passes through a Gaulin Dispersion Mill with a gap of 0.125 mm. To 337.5 g of this dispersion is added 8.10 g of a 10% solution of surfactant-B, 489.6 g of distilled water and 64.8 g of 12.5% gelatin.
Emulsion Melt Preparation. To 84.2 g of an undoctored AgCl cubic emulsion spectrally sensitized with a green sensitizing dye is added 53.3 g of 12.5% gelatin and 474 g of distilled water. The resulting melt has a silver content of 16.0 g of silver per kg of melt.
Protective Overcoat Melt Preparation. To 1840 g of distilled water is added 384 g of melted 12.5% gelatin and 36 g of a 10% solution of surfactant-B. Within one minute of coating the protective overcoat 140 g of a 1.8% solution of the hardening agent, bis-(vinylsulfonyl)methane, is added.
Film Formation. The thermal solvent dispersion is coated on the corona discharge treated polymeric receiver layer paper base at an aim laydown of 1.60 g/m^2 for the gelatin. This paper base (Kodak Thermal Print Receiver NS Paper) consists essentially of a polycarbonate layer overcoated with a polycaprolactam layer on a titanium dioxide tinted paper. Over the first gelatin layer is coated the silver halide emulsion and chromogenic image generating layer as follows: 30 g of the emulsion melt described above is added to 100 g of the coupler dispersion melt. This image dye generating layer has an aim laydown of 1.60 g of gelatin per m^2, 0.26 g of silver per m^2 and 0.38 g of coupler per m^2. After overcoating with the protective overcoat/hardener layer with an aim laydown of 1.08 g gelatin per m^2 and at a level of 1.35% hardener relative to total gelatin, the coating is stored for 4 days prior to processing.
Photographic Processing. Several examples of each of film example 1 are individually exposed on a Kodak 1-B sensitometer with a 0.01 sec white light exposure through a HA-50 infrared filter and a 21 step 0 to 3.0 density step tablet. […]

CCCCCCCCCCCCc1ccc(O)cc1 [CS-1]
Obs. Blue Density, Integral [1]: 2.07
Obs. Blue Density, Receiver 0-pass [1]: 0.081
Obs. Blue Density, Receiver 1-pass [1]: 0.079
Obs. Blue Density, Receiver 3-pass [1]: 0.089

CCCCCCCCCCS(=O)(=O)c1ccc(O)cc1 [TS-1, 4-n-Decylsulfonylphenol]
Obs. Green Density, 1-pass Rec [2]: 1.265
Obs. Green Density, 3-pass Rec [2]: 1.439
Obs. Green Density, Integral [2]: 2.11
net image density in the polymeric dye-receiver layer (green) ([3]; 1-pass): 0.93
net image density in the polymeric dye-receiver layer (green) ([3]; 3-pass): 1.45
Obs. Green Density, 1-pass Rec [3]: 0.980
Obs. Green Density, 3-pass Rec [3]: 1.495
Obs. Green Density, Integral [3]: 2.11
Obs. Blue Density, Integral [1]: 2.06
Obs. Blue Density, Receiver 0-pass [1]: 0.127
Obs. Blue Density, Receiver 1-pass [1]: 0.986
Obs. Blue Density, Receiver 3-pass [1]: 1.389

CCCCCCCCSc1ccc(O)cc1 [TS-5]
Obs. Green Density, 1-pass Rec [2]: 0.212
Obs. Green Density, 3-pass Rec [2]: 0.390
Obs. Green Density, Integral [2]: 1.93
Obs. Green Density, 1-pass Rec [3]: 0.112
Obs. Green Density, 3-pass Rec [3]: 0.094
Obs. Green Density, Integral [3]: 2.18

CCCCCCCCCOc1ccc(O)cc1 [TS-6]
Obs. Green Density, 1-pass Rec [3]: 0.230
Obs. Green Density, 3-pass Rec [3]: 0.410
Obs. Green Density, Integral [3]: 2.20
